Results are given in words; binding and its absence hold for the method and conditions named. Binding seen in cells or lysates may run through a third protein. Some results given as binding are weak or reduced against the parent protein; the word gives no strength. For some assays here: Sequences can lack the tags named with a protein.
Columns and labels:
FLAG-tagged CD146 = molecular target: T1, FLAG-tagged CD146 (UniProt P43121); experiment: co-IP; HK-2 cells co-transfected with V5-Wnt5a and FLAG-CD146 plasmids (1 μg or 2 μg each) for 48 h; lysed in RIPA buffer; IP with anti-V5 or anti-FLAG antibody overnight at 4 °C; blots with anti-FLAG and anti-V5
T1 sequence: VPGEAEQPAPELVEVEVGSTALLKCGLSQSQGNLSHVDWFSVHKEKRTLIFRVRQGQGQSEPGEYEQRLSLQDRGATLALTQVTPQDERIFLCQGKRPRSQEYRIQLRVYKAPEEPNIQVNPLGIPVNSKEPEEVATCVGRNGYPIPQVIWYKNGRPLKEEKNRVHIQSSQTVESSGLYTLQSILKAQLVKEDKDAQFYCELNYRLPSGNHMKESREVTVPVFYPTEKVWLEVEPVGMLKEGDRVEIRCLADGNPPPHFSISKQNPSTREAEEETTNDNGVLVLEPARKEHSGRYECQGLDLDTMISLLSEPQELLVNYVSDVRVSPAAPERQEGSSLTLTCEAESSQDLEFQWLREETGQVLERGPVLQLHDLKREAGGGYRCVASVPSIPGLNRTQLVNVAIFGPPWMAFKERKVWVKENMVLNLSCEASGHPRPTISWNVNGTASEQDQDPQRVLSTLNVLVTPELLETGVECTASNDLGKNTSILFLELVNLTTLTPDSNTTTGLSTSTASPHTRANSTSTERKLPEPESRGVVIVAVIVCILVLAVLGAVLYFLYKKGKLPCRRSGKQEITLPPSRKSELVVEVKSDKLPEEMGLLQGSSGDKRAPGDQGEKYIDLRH

[1] = molecular target: T2, CD146 (endogenous) (human (endogenous in HK-2)) (UniProt P43121); experiment: co-IP; endogenous proteins of HK-2 cells; normal glucose, or high glucose (HG) for 24 h with or without pretreatment with Box5 (100 μM/L); lysed in RIPA buffer; IP with anti-wnt5a or anti-CD146, blots with anti-CD146 or anti-wnt5a
T2 sequence: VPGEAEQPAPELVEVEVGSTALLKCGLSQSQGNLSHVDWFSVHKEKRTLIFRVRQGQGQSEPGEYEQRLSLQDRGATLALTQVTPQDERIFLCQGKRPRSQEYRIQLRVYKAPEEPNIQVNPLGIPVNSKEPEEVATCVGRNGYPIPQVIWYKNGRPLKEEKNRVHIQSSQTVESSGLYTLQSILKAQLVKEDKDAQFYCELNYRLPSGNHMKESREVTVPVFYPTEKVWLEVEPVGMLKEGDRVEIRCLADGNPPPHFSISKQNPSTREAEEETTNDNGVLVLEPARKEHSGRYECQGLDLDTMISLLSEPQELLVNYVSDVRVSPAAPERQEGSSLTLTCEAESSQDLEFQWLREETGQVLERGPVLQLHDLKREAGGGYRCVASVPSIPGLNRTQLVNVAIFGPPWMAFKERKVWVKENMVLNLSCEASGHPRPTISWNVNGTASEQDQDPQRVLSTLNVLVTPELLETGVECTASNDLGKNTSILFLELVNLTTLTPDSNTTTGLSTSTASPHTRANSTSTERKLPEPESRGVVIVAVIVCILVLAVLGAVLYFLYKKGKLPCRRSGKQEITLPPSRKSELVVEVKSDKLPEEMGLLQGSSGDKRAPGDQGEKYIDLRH

B1: V5-tagged Wnt5a (ligand, UniProt P41221 62-380)
chain: IIGAQPLCSQLAGLSQGQKKLCHLYQDHMQYIGEGAKTGIKECQYQFRHRRWNCSTVDNTSVFGRVMQIGSRETAFTYAVSAAGVVNAMSRACREGELSTCGCSRAARPKDLPRDWLWGGCGDNIDYGYRFAKEFVDARERERIHAKGSYESARILMNLHNNEAGRRTVYNLADVACKCHGVSGSCSLKTCWLQLADFRKVGDALKEKYDSAAAMRLNSRGKLVQVNSRFNSPTTQDLVYIDPSPDYCVRNESTGSLGTQGRLCNKTSEGMDGCELMCCGRGYDQFKTVQTERCHCKFHWCCYVKCKKCTEIVDQFVCK
FLAG-tagged CD146
  binding: binds

B2: Wnt5a (endogenous) (ligand, UniProt P41221 62-380)
chain: IIGAQPLCSQLAGLSQGQKKLCHLYQDHMQYIGEGAKTGIKECQYQFRHRRWNCSTVDNTSVFGRVMQIGSRETAFTYAVSAAGVVNAMSRACREGELSTCGCSRAARPKDLPRDWLWGGCGDNIDYGYRFAKEFVDARERERIHAKGSYESARILMNLHNNEAGRRTVYNLADVACKCHGVSGSCSLKTCWLQLADFRKVGDALKEKYDSAAAMRLNSRGKLVQVNSRFNSPTTQDLVYIDPSPDYCVRNESTGSLGTQGRLCNKTSEGMDGCELMCCGRGYDQFKTVQTERCHCKFHWCCYVKCKKCTEIVDQFVCK
[1]
  binding: binds

Reference: PMC7814016
